Measured values published in publication PMC6751662 (Cell Communication and Signaling : CCS, 2019).

Assay: general procedure: Fmoc solid-phase peptide synthesis; Rink amide resin
Conditions: whole synthesis, scale of the general procedure 15 μmol; for final HPLC purity: RP-HPLC

In the case of ASPSFIRF-NH2, the “final HPLC purity” value is reported as >95%.
With SEVPGVLRF-NH2 the “final HPLC purity” value was >95% and the difficulty met was “Some crude peptides were partly insoluble”.
With ADISTFASAINNAGRLRY-NH2 the “final HPLC purity” value was >90% and the difficulty met was “Some crude peptides were partly insoluble”.
With SRTHRHSMEIRTPDINPAWYASRGIRPVGRF-NH2 the “final HPLC purity” value was >95%.
In the case of ALNRDSLVASLNNAERLRF-NH2, the “final HPLC purity” value is reported as >95% and the difficulty met is reported as “Some crude peptides were partly insoluble”.
For “APLEPVYPGDNATPEQMAQYAADLRRYINMLTRPRY-NH2”, the “final HPLC purity” value was >95%.
For AGSDPNFLRF-NH2, the “final HPLC purity” value was >95%.
For TPDINPAWYASRGIRPVGRF-NH2, the “final HPLC purity” value was >95%.
In the case of TSGPLGNLAEELNGYSRKKGGFSFRF-NH2, the “final HPLC purity” value is reported as >95%.
With RGPSGPLAF-NH2 the “final HPLC purity” value was >95%.
In the case of APLEGFEDMSGFLRTIDGIQKPRF-NH2, the “final HPLC purity” value is reported as >95% and the difficulty met is reported as “Some crude peptides were partly insoluble”.
With GLGPRPLAF-NH2 the “final HPLC purity” value was >95%.
With NPENDTPFGTMRF-NH2 the “final HPLC purity” value was >95% and the difficulty met was “Some crude peptides were partly insoluble”.
With GLGPRPLRF-NH2 the “final HPLC purity” value was >95% and the difficulty met was “Some crude peptides were partly insoluble”.
For EASAFGDIIGELKGKGLGGRMRF-NH2, the “final HPLC purity” value was >95% and the difficulty met was “Some crude peptides were partly insoluble”.
For APKPKFIRF-NH2, the “final HPLC purity” value was >95%.
In the case of KHEYLRF-NH2, the “final HPLC purity” value is reported as >95%.
With RGPSGPLRF-NH2 the “final HPLC purity” value was >95% and the difficulty met was “Some crude peptides were partly insoluble”.
